Assay results reported in PMC9264838.
Results are given in words; binding and its absence hold for the method and conditions named. Binding seen in cells or lysates may run through a third protein. Some binding calls cover weakened binding; strength is not graded here.

Amino acid sequences for entries named in this document (tags omitted). Residues count along the entry.
UniProt P32004, residues 20-1257: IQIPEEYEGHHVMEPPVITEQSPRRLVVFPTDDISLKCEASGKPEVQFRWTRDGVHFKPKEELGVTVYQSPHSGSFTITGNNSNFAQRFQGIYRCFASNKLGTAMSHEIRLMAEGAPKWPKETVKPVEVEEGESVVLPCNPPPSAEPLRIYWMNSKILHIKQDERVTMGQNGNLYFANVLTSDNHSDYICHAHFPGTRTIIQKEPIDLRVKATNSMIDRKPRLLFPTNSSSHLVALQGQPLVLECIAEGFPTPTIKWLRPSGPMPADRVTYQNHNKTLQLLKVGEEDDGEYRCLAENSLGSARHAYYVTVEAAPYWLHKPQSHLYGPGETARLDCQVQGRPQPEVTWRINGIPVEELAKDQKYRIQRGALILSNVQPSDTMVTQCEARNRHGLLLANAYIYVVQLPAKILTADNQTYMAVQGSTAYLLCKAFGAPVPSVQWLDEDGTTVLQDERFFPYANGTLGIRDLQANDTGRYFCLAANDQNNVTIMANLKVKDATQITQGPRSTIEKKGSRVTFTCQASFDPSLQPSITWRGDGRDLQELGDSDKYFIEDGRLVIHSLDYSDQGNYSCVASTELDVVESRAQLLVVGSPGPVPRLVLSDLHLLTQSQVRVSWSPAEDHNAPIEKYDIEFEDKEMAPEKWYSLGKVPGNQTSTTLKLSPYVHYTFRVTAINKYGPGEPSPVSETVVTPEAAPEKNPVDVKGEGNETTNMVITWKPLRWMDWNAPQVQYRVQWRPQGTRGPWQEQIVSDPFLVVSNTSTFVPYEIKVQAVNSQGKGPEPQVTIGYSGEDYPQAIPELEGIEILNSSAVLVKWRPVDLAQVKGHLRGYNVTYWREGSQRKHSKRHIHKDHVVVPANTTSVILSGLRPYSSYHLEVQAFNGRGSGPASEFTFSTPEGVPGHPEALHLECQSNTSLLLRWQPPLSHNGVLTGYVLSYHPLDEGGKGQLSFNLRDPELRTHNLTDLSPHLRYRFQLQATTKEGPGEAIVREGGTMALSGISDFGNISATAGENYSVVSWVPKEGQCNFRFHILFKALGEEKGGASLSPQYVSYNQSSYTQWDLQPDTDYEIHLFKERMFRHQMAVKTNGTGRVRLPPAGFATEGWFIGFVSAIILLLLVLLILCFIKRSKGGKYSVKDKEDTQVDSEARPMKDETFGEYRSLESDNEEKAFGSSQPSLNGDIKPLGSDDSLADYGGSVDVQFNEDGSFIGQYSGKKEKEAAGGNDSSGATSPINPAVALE
UniProt P08238: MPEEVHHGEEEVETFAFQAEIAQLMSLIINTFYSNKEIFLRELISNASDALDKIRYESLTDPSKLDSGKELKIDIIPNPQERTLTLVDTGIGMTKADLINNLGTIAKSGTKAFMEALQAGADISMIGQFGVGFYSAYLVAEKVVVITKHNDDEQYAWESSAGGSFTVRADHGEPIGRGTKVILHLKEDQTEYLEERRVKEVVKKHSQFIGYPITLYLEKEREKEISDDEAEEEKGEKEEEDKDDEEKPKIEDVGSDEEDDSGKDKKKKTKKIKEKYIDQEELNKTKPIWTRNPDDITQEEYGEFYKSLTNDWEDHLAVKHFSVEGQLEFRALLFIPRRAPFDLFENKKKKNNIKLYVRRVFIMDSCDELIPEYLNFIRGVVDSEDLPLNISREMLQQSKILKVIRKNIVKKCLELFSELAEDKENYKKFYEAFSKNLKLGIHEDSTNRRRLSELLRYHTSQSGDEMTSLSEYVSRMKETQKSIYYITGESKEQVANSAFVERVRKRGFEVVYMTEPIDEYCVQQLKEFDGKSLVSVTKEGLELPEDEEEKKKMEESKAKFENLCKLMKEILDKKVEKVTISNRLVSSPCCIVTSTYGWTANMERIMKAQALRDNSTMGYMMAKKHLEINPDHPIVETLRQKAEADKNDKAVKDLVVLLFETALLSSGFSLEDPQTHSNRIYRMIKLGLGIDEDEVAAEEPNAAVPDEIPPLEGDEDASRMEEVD
UniProt P04406: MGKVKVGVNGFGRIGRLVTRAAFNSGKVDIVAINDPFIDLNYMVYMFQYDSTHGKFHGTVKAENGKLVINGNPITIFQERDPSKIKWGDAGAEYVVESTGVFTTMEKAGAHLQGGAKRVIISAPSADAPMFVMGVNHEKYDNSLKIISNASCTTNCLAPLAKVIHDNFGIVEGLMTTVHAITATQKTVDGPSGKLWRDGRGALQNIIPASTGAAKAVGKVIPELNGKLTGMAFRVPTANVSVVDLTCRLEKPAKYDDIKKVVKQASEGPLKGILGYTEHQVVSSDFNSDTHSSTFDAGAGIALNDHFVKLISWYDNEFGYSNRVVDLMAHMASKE
UniProt P08670: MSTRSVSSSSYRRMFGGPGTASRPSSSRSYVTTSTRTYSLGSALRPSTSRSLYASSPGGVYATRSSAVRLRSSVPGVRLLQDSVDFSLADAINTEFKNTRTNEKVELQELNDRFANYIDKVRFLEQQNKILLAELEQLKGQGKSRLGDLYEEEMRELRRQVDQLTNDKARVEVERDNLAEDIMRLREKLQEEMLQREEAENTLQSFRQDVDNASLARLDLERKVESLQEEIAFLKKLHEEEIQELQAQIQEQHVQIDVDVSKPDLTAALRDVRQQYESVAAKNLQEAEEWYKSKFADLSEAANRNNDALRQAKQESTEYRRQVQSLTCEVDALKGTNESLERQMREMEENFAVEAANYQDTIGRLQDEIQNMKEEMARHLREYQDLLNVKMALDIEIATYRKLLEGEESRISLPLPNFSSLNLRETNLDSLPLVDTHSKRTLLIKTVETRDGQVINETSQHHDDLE

Legend:
[1] = molecular target: L1CAM (human (endogenous in SW1353)) (UniProt P32004); assay: co-IP; same procedure (protein A sepharose, antibody-cross-linked beads, overnight) in SW1353 CS protein extracts; Western blotting
[2] = molecular target: heat shock protein 90 beta (Hsp90ab1) (human (endogenous in C28/I2)) (UniProt P08238); assay: co-IP; anti-Hsp90ab1 antibody cross-linked to protein A sepharose, incubated overnight with C28/I2 chondrocytes lysate, washed three times with PBS; normal IgG as negative control; Western blotting

glyceraldehyde 3-phosphate dehydrogenase (GAPDH) (from UniProt P04406 1-335)
binding [1]: binds

vimentin (from UniProt P08670 1-466)
binding [2]: binds
